Assay results taken from PubChem BioAssay AID493014 (National Center for Advancing Translational Sciences (NCATS), 2011).
The other results are listed elsewhere or left out. These are further read-outs of the screen, such as a control signal, another cell line or another target. No call is given for them. Most of these compounds were active or inconclusive in the main read-out, so they are no random draw. Potencies come from curve fits of mixed quality, noted in brackets.

Assay: qHTS Assay to Find Inhibitors of Chronic Active B-Cell Receptor Signaling
Conditions: ABC-DLBCL IkBa-CBG/CBR reporter, luminescence ratio (green luciferase fused to IkBa over red control in TMD8 lymphoma cells), 4 h
Method in brief: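 Cell line TMD8 (human ABC DLBCL), stably expressing tet-inducible CBG68-IkBa fusion and CBR; IMDM/0.5% FBS; cpd up to 46 uM; dox induction, 4 h, 37C/5% CO2; dual luminescence; green/red ratio; MG132 control.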

[1] = measured here: CBR red luminescence, cell number

Structure (SMILES): CN(C)C(=O)c1coc2nc3ccccc3nc12
- AC50 [1]: 11.2 µM [falling, partial curve, poor fit]

Structure (SMILES): Cc1nc(-c2ccc([N+](=O)[O-])cc2)sc1C(=O)O
- AC50 [1]: 5.01 µM [falling, partial curve]

Structure (SMILES): COC(=O)Cn1c(C)nc2ccccc21
- AC50 [1]: 0.00517 µM [falling, full curve, poor fit]

Structure (SMILES): Cc1ccc(Cl)cc1NS(=O)(=O)c1ccc2oc(=O)ccc2c1
- AC50 [1]: 35.5 µM [falling, single point]

Structure (SMILES): COc1ccccc1N1CCN(Cc2ccc(O)c3ncccc23)CC1
- AC50 [1]: 29.1 µM [falling, single point]
- AC50 (measured here: IkBa-CBG green luminescence): 0.651 µM [falling, full curve, poor fit]

Structure (SMILES): O=C(NCCN1C(=O)S/C(=C\c2ccccc2F)C1=O)C1=COCCO1
- AC50 [1]: 16.4 µM [falling, single point]

Structure (SMILES): Cc1ccc(O)c(-c2cc(-c3ccc(F)cc3)no2)c1
- AC50 [1]: 11.2 µM [falling, partial curve]

Structure (SMILES): Cc1csc(NC(=O)C2CCN(C(=O)c3ccccc3C)CC2)n1
- AC50 [1]: 12.6 µM [falling, partial curve, poor fit]

Structure (SMILES): CC(C)c1nn2c(=O)cc(CSc3ccccc3NC(=O)c3ccccc3F)nc2s1
- AC50 [1]: 14.1 µM [falling, partial curve, poor fit]

Structure (SMILES): CC1(C)CC(=O)C(CS(=O)(=O)c2ccccc2)=C(Cl)C1
- AC50 [1]: 5.62 µM [falling, partial curve, poor fit]

Structure (SMILES): CCOC(=O)c1ccccc1NC(=O)Cn1c(=O)n(-c2ccc(CC)cc2)c(=O)c2c(C)c(C(=O)N(C)C)sc21
- AC50 [1]: 11.2 µM [falling, partial curve, poor fit]

Structure (SMILES): c1ccc(CCNc2nc3ccccc3s2)cc1
- AC50 [1]: 13 µM [falling, single point]

Structure (SMILES): Cc1ccccc1-n1nc(C)c2c(C(=O)NN)cc(-c3ccncc3)nc21
- AC50 [1]: 12.6 µM [falling, single point]

Structure (SMILES): Cc1ccc(NC(=O)CCNC(=O)c2ccc([N+](=O)[O-])cc2)cc1C
- AC50 [1]: 0.0631 µM [rising, full curve, poor fit]

Structure (SMILES): O=C1OCCC1Sc1nnc(-c2ccc(Br)cc2)o1 (configuration not stated)
- AC50 [1]: 4.11 µM [falling, partial curve]

Structure (SMILES): Cc1ccc(CCN2CC(C(=O)NCCC(C)C)CC2=O)cc1 (configuration not stated)
- AC50 [1]: 35.5 µM [rising, single point]

Structure (SMILES): O=c1c(-c2ccc(O)cc2O)coc2cc(O)cc(O)c12
- AC50 [1]: 7.08 µM [rising, full curve, poor fit]

Structure (SMILES): CCOC(=O)c1ccsc1NC(=O)CCS(=O)(=O)c1ccccc1
- AC50 [1]: 11.2 µM [falling, partial curve, poor fit]

Structure (SMILES): CCOc1ccc2nc(SCC(=O)Nc3cccc(S(=O)(=O)NC4=NCCCCC4)c3)[nH]c2c1
- AC50 [1]: 7.08 µM [falling, partial curve]

Structure (SMILES): NS(=O)(=O)c1ccc(NC(=S)NNC(=O)c2ccc(Br)o2)cc1
- AC50 [1]: 22.4 µM [falling, single point]

Structure (SMILES): Nc1ccc([N+](=O)[O-])cc1C(=O)NNC(=O)c1ccco1
- AC50 [1]: 15.8 µM [falling, single point]

Structure (SMILES): O=C(OC1CCOC1=O)c1ccc(-c2nc3ccccc3s2)s1 (configuration not stated)
- AC50 [1]: 5.62 µM [falling, partial curve, poor fit]

Structure (SMILES): COC(=O)Cc1c(C)nc2nc(-c3ccccc3)[nH]n2c1=O
- AC50 [1]: 5.8 µM [falling, partial curve]

Structure (SMILES): CCc1ccc(C(=O)COC(=O)c2cccs2)cc1
- AC50 [1]: 0.731 µM [rising, full curve, poor fit]

Structure (SMILES): CCC(=O)NC1(C(F)(F)F)C(=O)NC(C)=C1C#N (configuration not stated)
- AC50 [1]: 18.4 µM [falling, partial curve, poor fit]

Structure (SMILES): Cc1ccc2cccc(NC(=S)NC(=O)c3ccnn3C)c2n1
- AC50 [1]: 0.146 µM [rising, full curve, poor fit]

Structure (SMILES): CCOC(=O)CSc1ccc(-c2nc3ccccc3[nH]2)cn1
- AC50 [1]: 11.6 µM [falling, partial curve, poor fit]

Structure (SMILES): CN(C)c1ccc(NC(=O)COC(=O)CNC(=O)c2cccs2)cc1
- AC50 [1]: 0.092 µM [rising, full curve, poor fit]

Structure (SMILES): Cc1ccc(S(=O)(=O)Oc2ccc(/C=N/NC(=O)c3c(Cl)cnn3C)cc2)cc1
- AC50 [1]: 18.4 µM [falling, partial curve]

Structure (SMILES): CN1CCN(C(=O)CCN2C(=O)/C(=C\c3ccc(Cl)cc3Cl)SC2=S)CC1
- AC50 [1]: 1.26 µM [falling, full curve, poor fit]

Structure (SMILES): Cc1cc2nc(-c3cccc(NC(=O)C(C)C)c3C)oc2cc1C
- AC50 [1]: 1.12 µM [falling, full curve]

Structure (SMILES): COc1cc(/C(C)=N/NC(=O)c2cccc(S(=O)(=O)N3CCCC3)c2)cc(OC)c1OC
- AC50 [1]: 14.1 µM [falling, partial curve, poor fit]

Structure (SMILES): COc1cc(OC)c(OC)cc1/C=C/c1nc2cc3ccccc3cc2c(=O)n1-c1ccc(F)c(Cl)c1
- AC50 [1]: 8.91 µM [falling, partial curve]

Structure (SMILES): CC(C)(C)c1ccc(COn2c(=O)c(-c3ccco3)[n+]([O-])c3ccccc32)cc1
- AC50 [1]: 20.6 µM [falling, single point]

Structure (SMILES): Fc1ccc(NCc2nnc(SCc3nnc(-c4ccccc4)o3)n2Cc2ccccc2)cc1
- AC50 [1]: 35.5 µM [falling, single point]

Structure (SMILES): COc1cccc(C(=O)NC(=O)Nc2cc(C)[nH]n2)c1
- AC50 [1]: 2.82 µM [falling, partial curve]

Structure (SMILES): O=C(O)C1Cc2ccccc2CN1C(=O)COc1ccc(Cl)cc1Cl (configuration not stated)
- AC50 [1]: 12.6 µM [rising, single point]

Structure (SMILES): Cc1cc(C)n2nc(SCC3COc4ccccc4O3)nc2n1 (configuration not stated)
- AC50 [1]: 2.51 µM [rising, partial curve, poor fit]

Structure (SMILES): Oc1ccc(/C=N/N2CCCCC2)cc1O
- AC50 [1]: 0.316 µM [rising, full curve]

Structure (SMILES): Oc1ccccc1Nc1nc(NCc2ccco2)c2ccccc2n1
- AC50 [1]: 35.5 µM [falling, single point]

Structure (SMILES): CC(=O)Nc1ccc(S(=O)(=O)NCCSCc2c(Cl)cccc2Cl)cc1
- AC50 [1]: 35.5 µM [falling, single point]
